Results on two molecules are retold here after article PMC7332549.

Chains of the proteins cited; added tags and fusions are not shown.
UniProt P60842: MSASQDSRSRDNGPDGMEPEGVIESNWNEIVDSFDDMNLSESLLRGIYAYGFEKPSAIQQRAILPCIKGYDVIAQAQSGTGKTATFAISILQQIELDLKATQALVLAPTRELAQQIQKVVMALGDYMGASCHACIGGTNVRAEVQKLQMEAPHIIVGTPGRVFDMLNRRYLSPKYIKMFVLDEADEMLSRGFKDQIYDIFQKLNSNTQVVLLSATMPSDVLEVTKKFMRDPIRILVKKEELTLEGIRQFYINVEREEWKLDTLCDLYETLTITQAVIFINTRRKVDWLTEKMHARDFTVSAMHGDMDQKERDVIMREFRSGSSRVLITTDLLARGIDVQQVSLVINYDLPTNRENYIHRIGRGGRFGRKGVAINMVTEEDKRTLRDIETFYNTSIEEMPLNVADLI
UniProt P04406: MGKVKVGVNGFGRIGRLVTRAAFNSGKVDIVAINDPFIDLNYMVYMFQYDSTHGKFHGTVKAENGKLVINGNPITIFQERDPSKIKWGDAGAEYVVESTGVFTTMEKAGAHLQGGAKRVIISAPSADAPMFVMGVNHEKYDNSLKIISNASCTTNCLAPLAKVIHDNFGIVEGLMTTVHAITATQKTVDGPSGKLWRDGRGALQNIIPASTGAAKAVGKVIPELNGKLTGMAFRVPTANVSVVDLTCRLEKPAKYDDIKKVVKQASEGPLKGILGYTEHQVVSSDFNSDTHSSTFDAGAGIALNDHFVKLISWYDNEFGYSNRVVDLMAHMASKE

The target in test [1] is eukaryotic initiation factor 4A-1 (EIF4A1) (human (endogenous in HaCaT)) (UniProt P60842). Nature of the test: co-IP; 1 mg lysate protein with 10 μg anti-EIF4A1 antibody in IP lysis buffer at 4°C overnight, Protein A and Protein G magnetic beads; western blot with anti-USP15; EIF4A1 as bait; also done after silencing USP15. For orientation: In western blotting, separated proteins are transferred to a membrane and probed.

The target is the same in test [2]. The description is as above. This is another data set of the same source.

Read-outs that look alike come from different tables or passages of the source. No constants are given. Whether binding was seen depends on the method and setting. In cells and extracts the contact can be indirect. Some binding calls cover weakened binding; strength is not graded here.

Take GAPDH (from UniProt P04406 1-335): the binding entry in test [1] was “no binding”.

B1: Ubiquitin-specific peptidase 15 (USP15) (enzyme, UniProt Q9Y4E8 1-981)
chain: MAEGGAADLDTQRSDIATLLKTSLRKGDTWYLVDSRWFKQWKKYVGFDSWDKYQMGDQNVYPGPIDNSGLLKDGDAQSLKEHLIDELDYILLPTEGWNKLVSWYTLMEGQEPIARKVVEQGMFVKHCKVEVYLTELKLCENGNMNNVVTRRFSKADTIDTIEKEIRKIFSIPDEKETRLWNKYMSNTFEPLNKPDSTIQDAGLYQGQVLVIEQKNEDGTWPRGPSTPKSPGASNFSTLPKISPSSLSNNYNNMNNRNVKNSNYCLPSYTAYKNYDYSEPGRNNEQPGLCGLSNLGNTCFMNSAIQCLSNTPPLTEYFLNDKYQEELNFDNPLGMRGEIAKSYAELIKQMWSGKFSYVTPRAFKTQVGRFAPQFSGYQQQDCQELLAFLLDGLHEDLNRIRKKPYIQLKDADGRPDKVVAEEAWENHLKRNDSIIVDIFHGLFKSTLVCPECAKISVTFDPFCYLTLPLPMKKERTLEVYLVRMDPLTKPMQYKVVVPKIGNILDLCTALSALSGIPADKMIVTDIYNHRFHRIFAMDENLSSIMERDDIYVFEININRTEDTEHVIIPVCLREKFRHSSYTHHTGSSLFGQPFLMAVPRNNTEDKLYNLLLLRMCRYVKISTETEETEGSLHCCKDQNINGNGPNGIHEEGSPSEMETDEPDDESSQDQELPSENENSQSEDSVGGDNDSENGLCTEDTCKGQLTGHKKRLFTFQFNNLGNTDINYIKDDTRHIRFDDRQLRLDERSFLALDWDPDLKKRYFDENAAEDFEKHESVEYKPPKKPFVKLKDCIELFTTKEKLGAEDPWYCPNCKEHQQATKKLDLWSLPPVLVVHLKRFSYSRYMRDKLDTLVDFPINDLDMSEFLINPNAGPCRYNLIAVSNHYGGMGGGHYTAFAKNKDDGKWYYFDDSSVSTASEDQIVSKAAYVLFYQRQDTFSGTGFFPLDRETKGASAATGIPLESDEDSNDNDNDIENENCMHTN
For the molecule B1, the binding result in test [2] is “binds”.
